Data: the supplement of paper PMC10849652
Some of the results follow.

The chains behind the UniProt entries cited, without tags or fusion partners. Where a name states a change or a piece, a line headed by the entry shows the natural chain unless it says otherwise.
UniProt Q9Y276: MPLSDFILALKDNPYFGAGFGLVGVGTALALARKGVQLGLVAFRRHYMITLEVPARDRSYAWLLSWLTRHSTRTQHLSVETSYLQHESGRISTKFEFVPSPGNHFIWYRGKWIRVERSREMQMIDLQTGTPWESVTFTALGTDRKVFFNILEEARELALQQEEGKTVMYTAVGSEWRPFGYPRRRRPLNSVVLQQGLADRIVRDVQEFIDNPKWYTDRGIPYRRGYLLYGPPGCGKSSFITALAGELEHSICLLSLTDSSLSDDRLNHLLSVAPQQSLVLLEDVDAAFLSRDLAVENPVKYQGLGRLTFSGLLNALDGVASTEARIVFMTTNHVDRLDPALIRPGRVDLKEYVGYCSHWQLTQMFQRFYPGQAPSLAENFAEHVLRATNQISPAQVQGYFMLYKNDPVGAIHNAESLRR
UniProt P46736, whole entry, looked up: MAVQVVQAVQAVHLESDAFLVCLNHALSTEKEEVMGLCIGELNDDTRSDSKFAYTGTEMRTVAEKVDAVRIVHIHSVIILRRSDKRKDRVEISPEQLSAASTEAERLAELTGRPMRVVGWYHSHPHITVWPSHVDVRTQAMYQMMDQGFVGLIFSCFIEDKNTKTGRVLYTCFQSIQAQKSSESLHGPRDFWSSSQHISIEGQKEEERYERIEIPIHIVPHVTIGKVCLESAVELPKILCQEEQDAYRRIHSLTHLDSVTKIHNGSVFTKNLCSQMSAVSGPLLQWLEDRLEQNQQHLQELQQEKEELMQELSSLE
UniProt Q92843: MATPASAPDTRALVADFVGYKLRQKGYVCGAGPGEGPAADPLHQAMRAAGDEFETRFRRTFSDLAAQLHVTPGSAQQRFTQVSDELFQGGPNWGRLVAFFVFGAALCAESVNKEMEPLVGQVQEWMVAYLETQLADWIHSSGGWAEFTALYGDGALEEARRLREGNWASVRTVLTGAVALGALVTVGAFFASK
UniProt Q13867: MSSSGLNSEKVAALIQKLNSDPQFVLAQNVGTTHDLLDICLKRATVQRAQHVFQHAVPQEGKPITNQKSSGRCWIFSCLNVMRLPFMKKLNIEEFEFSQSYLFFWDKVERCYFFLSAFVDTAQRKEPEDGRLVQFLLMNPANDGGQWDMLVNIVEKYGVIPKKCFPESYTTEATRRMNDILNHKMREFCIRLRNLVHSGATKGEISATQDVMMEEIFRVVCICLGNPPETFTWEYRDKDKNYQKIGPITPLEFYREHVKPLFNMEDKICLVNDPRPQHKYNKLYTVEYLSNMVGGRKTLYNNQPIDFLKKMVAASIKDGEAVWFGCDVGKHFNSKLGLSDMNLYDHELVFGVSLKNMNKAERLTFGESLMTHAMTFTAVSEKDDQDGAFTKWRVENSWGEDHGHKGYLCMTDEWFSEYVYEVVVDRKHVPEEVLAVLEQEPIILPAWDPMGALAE
UniProt Q53S33: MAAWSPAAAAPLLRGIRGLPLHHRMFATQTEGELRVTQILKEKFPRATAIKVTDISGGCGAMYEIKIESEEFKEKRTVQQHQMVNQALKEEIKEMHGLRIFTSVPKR
UniProt Q9BXK5, whole entry, looked up: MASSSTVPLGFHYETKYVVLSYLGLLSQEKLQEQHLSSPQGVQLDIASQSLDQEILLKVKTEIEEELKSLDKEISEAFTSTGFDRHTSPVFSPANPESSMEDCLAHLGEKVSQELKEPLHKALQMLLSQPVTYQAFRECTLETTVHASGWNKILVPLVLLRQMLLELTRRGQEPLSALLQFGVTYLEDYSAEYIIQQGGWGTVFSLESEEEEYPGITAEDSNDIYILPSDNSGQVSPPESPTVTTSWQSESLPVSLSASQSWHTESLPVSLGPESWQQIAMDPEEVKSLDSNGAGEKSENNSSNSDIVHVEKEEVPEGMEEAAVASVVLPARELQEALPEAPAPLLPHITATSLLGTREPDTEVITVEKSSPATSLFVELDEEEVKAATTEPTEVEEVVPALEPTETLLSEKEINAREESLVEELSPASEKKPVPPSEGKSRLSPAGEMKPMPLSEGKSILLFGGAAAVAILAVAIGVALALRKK
UniProt O14867: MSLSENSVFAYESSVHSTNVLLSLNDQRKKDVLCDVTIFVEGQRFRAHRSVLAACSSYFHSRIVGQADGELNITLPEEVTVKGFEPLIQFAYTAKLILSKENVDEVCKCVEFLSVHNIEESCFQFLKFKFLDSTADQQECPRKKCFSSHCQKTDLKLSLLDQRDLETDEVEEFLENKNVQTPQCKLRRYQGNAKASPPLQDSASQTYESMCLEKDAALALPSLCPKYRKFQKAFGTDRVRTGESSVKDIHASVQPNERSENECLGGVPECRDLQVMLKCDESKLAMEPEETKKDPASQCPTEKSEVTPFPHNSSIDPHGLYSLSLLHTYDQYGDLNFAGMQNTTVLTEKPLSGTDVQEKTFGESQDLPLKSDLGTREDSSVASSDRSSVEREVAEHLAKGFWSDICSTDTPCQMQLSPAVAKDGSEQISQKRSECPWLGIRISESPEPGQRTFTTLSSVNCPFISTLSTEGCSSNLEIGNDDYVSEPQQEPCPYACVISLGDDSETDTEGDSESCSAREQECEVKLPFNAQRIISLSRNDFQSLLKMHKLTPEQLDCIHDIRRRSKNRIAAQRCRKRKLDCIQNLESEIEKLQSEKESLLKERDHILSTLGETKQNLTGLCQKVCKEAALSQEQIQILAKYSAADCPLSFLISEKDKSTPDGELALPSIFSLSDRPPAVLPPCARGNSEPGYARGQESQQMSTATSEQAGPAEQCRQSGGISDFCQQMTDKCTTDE
UniProt P78537: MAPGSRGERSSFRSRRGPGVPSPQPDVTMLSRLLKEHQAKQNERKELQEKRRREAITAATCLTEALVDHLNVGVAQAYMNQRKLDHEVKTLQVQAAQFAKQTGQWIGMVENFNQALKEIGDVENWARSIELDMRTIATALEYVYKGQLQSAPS
UniProt O75934: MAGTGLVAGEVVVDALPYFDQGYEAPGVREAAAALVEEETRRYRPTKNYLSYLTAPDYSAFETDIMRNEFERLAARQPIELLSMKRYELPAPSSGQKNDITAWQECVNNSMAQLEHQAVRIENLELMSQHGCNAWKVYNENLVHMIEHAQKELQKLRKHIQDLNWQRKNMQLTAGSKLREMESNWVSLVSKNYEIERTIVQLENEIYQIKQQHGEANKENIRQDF
UniProt P25311: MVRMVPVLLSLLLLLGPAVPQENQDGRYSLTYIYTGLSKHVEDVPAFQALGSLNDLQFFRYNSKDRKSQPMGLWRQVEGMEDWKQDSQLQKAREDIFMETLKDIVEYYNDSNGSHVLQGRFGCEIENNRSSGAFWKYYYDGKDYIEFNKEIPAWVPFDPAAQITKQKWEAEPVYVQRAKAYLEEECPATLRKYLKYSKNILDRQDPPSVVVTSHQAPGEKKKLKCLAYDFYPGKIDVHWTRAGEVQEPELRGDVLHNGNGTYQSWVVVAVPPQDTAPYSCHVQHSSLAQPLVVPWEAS
UniProt Q16611: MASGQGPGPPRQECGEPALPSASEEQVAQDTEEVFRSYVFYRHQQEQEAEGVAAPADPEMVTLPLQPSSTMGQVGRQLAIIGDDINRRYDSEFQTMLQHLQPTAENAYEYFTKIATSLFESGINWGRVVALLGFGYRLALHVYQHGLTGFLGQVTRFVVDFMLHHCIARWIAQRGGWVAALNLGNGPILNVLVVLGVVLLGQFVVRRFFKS
UniProt Q5VW32: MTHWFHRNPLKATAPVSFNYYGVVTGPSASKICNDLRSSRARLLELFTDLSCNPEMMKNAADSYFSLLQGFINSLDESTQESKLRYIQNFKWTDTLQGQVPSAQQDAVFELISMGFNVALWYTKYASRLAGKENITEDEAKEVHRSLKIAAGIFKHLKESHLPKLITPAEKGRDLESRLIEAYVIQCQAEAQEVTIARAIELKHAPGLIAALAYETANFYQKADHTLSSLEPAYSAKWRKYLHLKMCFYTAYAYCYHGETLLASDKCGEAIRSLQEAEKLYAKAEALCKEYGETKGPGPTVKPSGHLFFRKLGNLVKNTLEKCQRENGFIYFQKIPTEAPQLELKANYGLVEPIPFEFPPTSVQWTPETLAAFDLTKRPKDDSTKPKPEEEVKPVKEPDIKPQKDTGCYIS
UniProt Q96GS4: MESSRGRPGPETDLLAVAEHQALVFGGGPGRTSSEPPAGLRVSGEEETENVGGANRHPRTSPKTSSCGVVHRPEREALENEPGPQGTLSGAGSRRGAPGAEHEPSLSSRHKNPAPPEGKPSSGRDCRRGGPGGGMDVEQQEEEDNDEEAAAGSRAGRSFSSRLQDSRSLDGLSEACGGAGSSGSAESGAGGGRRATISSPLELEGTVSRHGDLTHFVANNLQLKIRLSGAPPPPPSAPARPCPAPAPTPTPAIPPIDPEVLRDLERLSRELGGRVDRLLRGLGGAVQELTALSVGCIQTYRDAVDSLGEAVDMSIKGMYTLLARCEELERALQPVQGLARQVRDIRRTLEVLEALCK
UniProt P46379: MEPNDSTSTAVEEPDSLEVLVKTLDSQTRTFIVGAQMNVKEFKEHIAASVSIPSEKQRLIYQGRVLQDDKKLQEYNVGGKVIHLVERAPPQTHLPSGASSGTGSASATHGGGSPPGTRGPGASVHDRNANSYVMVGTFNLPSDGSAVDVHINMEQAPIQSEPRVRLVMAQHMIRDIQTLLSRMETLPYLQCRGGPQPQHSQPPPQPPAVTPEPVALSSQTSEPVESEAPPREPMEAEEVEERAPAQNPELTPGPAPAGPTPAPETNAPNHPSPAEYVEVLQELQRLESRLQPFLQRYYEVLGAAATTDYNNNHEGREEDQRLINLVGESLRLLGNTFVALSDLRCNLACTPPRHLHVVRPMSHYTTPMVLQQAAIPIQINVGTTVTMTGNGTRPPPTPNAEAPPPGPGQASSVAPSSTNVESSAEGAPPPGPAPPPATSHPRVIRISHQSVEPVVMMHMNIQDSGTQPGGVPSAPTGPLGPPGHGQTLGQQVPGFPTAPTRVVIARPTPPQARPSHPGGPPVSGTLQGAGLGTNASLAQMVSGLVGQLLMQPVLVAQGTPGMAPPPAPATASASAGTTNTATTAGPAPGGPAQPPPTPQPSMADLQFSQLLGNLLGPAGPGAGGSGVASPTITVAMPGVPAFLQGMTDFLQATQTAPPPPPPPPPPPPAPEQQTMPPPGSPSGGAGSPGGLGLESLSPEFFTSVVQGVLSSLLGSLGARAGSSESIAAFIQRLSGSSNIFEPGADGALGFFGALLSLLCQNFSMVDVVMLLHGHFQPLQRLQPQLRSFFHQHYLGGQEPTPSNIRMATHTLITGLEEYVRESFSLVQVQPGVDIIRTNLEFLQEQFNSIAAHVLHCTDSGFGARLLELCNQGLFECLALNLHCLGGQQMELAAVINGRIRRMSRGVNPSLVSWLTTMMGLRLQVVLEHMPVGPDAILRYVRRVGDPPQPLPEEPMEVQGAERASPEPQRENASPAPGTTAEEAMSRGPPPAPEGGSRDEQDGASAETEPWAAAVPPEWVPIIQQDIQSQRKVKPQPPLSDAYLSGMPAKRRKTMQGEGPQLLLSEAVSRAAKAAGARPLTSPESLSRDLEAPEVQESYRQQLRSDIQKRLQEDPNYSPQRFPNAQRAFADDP
UniProt Q8TD16, whole entry, looked up: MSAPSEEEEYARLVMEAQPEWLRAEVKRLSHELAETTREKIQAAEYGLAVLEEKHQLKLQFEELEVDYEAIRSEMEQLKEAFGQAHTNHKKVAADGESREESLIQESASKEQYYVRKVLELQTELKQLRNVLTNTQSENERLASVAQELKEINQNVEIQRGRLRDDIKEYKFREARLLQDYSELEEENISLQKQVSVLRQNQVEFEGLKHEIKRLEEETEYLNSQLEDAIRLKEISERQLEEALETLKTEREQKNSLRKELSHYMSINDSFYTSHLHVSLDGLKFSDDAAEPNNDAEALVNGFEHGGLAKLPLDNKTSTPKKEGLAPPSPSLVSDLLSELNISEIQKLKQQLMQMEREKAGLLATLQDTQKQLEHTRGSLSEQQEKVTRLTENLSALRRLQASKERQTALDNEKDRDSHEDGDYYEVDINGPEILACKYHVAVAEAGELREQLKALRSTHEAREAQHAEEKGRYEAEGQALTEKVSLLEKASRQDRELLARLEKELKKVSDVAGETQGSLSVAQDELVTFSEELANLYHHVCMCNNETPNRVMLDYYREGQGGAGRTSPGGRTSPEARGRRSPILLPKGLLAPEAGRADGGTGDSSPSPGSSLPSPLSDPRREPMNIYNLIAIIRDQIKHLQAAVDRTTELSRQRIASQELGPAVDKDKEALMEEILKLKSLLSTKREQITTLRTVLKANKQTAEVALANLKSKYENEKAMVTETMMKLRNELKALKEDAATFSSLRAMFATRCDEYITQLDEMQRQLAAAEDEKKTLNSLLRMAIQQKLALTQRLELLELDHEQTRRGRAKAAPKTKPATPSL
UniProt Q07812, whole entry, looked up: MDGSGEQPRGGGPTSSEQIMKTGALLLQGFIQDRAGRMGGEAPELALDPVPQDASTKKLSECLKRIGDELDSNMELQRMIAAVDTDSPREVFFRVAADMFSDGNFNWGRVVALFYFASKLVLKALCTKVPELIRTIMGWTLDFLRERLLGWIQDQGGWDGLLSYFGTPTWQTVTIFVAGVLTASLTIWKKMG
UniProt Q9H3K6: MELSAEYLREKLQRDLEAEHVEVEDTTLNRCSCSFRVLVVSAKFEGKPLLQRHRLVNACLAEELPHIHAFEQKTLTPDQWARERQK

The targets below were run with C[C@H](C1=CC=C(C=C1)C(=O)NC2=C3C=CNC3=NC=C2)N (assay: log2 fold change, soluble protein after heating vs DMSO (PISA); higher = thermal stabilisation; K562 cells, 10 uM, 30 min; active = over 0.2 and 3.5 SD of the protein, either way, in both replicates (recomputed)).
Outline: (§1)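 For each measurement, 10 μM compound was applied for 30 min to K562 cells at 2×10^6 cells/mL. Aliquots were heated for 3 min across 48°C-58°C, pooled, and extracted in PBS with 0.5% NP-40 at 4°C; the supernatant after 21,000xg for 90 min was soluble protein. This was quantified by TMTpro 16plex LC-MS/MS with channel sums equalised, and thermal stability was reported relative to control samples from duplicates, on a log2 fold-change scale.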

log2 fold change, inactive:
BCS1L (UniProt Q9Y276) -0.025, BRCC3 (UniProt P46736) 0.044, BCL2L2 isoform 2 (UniProt Q92843) 0.036, BLMH (UniProt Q13867) -0.034, BOLA3 (UniProt Q53S33) -0.054, BCL2L13 (UniProt Q9BXK5) -0.109, BACH1 (UniProt O14867) 0.019, BLOC1S1 (UniProt P78537) -0.034, BCAS2 (UniProt O75934) -0.075, AZGP1 (UniProt P25311) -0.081, BAK1 (UniProt Q16611) -0.03, BROX (UniProt Q5VW32) -0.021, BORCS6 (UniProt Q96GS4) -0.077, BAG6 isoform 3 (UniProt P46379) 0.002

Each target was assayed with C[C@H](Nc1ncnc2nc[nH]c12)c1cc2cccc(Cl)c2c(=O)n1-c1ccccc1 [duvelisib] in the same assay as above.
Outline: as §1

log2 fold change, inactive:
BRAT1 (UniProt Q6PJG6) 0.029, BLOC1S4 (UniProt Q9NUP1) 0.064, ATXN2 (UniProt Q99700) -0.026, BCL2L1 (UniProt Q07817) 0.011, ATRIP (UniProt Q8WXE1) 0.03, B4GALT3 (UniProt O60512) 0.142, BLVRA (UniProt P53004) 0.086, BICD2 isoform 2 (UniProt Q8TD16) 0.082, BABAM1 (UniProt Q9NWV8) -0.057, BAX isoform 2 (UniProt Q07812) 0.071, BCKDHA (UniProt P12694) 0.022, BNIP2 (UniProt J3KN59) 0.052, BOLA2 (UniProt Q9H3K6) 0.034, BIRC2 (UniProt Q13490) 0.046, BAG3 (UniProt O95817) 0.048, BAHCC1 (UniProt Q9P281) 0.204, BMS1 (UniProt Q14692) -0.219, BCKDK (UniProt O14874) 0.025, BET1 (UniProt O15155) 0.058, BPNT1 (UniProt O95861) -0.014, BLOC1S5 (UniProt Q8TDH9) 0.076, B3GAT3 (UniProt O94766) 0.063, BIRC6 (UniProt Q9NR09) -0.019, BCS1L (UniProt Q9Y276) 0.03, BRCC3 (UniProt P46736) 0.026, BCL2L2 isoform 2 (UniProt Q92843) -0.025, BLMH (UniProt Q13867) 0.001, BOLA3 (UniProt Q53S33) 0.04, BCL2L13 (UniProt Q9BXK5) 0.021, BACH1 (UniProt O14867) -0.03, BLOC1S1 (UniProt P78537) 0.119, BCAS2 (UniProt O75934) -0.07, AZGP1 (UniProt P25311) -0.228, BAK1 (UniProt Q16611) 0.19, BROX (UniProt Q5VW32) 0.087, BORCS6 (UniProt Q96GS4) 0.018, BAG6 isoform 3 (UniProt P46379) -0.011

These targets were tested with Cc1cc(Nc2cc(CN3CCOCC3)c3nc(C)c(Cc4ccc(Cl)cc4F)n3n2)n[nH]1 [gandotinib] in the same assay as above.
Outline: as §1

log2 fold change, inactive:
BRAT1 (UniProt Q6PJG6) 0.013, BLOC1S4 (UniProt Q9NUP1) -0.103, ATXN2 (UniProt Q99700) -0.013, BCL2L1 (UniProt Q07817) 0.043, ATRIP (UniProt Q8WXE1) -0.07, B4GALT3 (UniProt O60512) 0.003, BLVRA (UniProt P53004) -0.147, BICD2 isoform 2 (UniProt Q8TD16) -0.017, BABAM1 (UniProt Q9NWV8) 0.041, BAX isoform 2 (UniProt Q07812) 0.064, BCKDHA (UniProt P12694) 0.019, BNIP2 (UniProt J3KN59) -0.124, BOLA2 (UniProt Q9H3K6) -0.032, BIRC2 (UniProt Q13490) 0.111, BAG3 (UniProt O95817) 0.093, BAHCC1 (UniProt Q9P281) -0.158, BMS1 (UniProt Q14692) 0.153, BCKDK (UniProt O14874) 0.036, BET1 (UniProt O15155) -0.13, BPNT1 (UniProt O95861) 0.039, BLOC1S5 (UniProt Q8TDH9) 0.01, B3GAT3 (UniProt O94766) -0.027, BIRC6 (UniProt Q9NR09) -0.022, BCS1L (UniProt Q9Y276) 0.037, BRCC3 (UniProt P46736) 0.022, BCL2L2 isoform 2 (UniProt Q92843) -0.012, BLMH (UniProt Q13867) -0.027, BOLA3 (UniProt Q53S33) 0.029, BCL2L13 (UniProt Q9BXK5) 0.016, BACH1 (UniProt O14867) 0.024, BLOC1S1 (UniProt P78537) -0.149, BCAS2 (UniProt O75934) 0.121, AZGP1 (UniProt P25311) -0.396, BAK1 (UniProt Q16611) 0.057, BROX (UniProt Q5VW32) 0.02, BORCS6 (UniProt Q96GS4) -0.035, BAG6 isoform 3 (UniProt P46379) -0.077
